Experimental data reported in article PMC6768663.
No constants are given. Whether binding was seen depends on the method and setting. Binding seen in cells or lysates may run through a third protein. Here binding means that the protein was enriched with, or labelled near, the bait; the list need not be complete.

By UniProt entry, the sequences of proteins in these tests, tags left out. Residues count along the entry.
UniProt Q9EQT3: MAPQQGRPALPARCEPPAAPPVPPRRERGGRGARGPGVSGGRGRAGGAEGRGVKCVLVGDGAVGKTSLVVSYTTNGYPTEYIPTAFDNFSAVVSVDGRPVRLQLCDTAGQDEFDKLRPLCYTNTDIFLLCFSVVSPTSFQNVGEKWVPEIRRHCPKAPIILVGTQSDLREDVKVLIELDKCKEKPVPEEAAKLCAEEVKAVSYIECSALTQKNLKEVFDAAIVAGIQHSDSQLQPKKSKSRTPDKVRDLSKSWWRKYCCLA
UniProt Q8CIN4: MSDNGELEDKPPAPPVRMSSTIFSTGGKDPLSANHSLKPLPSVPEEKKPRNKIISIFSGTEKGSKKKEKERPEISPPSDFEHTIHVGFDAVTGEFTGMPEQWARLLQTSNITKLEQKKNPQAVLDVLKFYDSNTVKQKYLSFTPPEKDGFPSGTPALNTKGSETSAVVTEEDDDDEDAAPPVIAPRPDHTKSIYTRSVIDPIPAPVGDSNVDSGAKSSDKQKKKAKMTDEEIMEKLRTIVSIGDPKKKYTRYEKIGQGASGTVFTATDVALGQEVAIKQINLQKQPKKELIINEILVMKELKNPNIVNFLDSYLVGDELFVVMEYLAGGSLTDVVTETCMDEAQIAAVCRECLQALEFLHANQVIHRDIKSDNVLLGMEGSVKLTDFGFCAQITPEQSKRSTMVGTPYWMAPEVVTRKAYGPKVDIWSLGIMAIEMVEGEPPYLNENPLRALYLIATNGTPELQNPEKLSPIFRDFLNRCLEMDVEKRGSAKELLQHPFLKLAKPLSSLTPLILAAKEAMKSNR
UniProt P09055, residues 21-798: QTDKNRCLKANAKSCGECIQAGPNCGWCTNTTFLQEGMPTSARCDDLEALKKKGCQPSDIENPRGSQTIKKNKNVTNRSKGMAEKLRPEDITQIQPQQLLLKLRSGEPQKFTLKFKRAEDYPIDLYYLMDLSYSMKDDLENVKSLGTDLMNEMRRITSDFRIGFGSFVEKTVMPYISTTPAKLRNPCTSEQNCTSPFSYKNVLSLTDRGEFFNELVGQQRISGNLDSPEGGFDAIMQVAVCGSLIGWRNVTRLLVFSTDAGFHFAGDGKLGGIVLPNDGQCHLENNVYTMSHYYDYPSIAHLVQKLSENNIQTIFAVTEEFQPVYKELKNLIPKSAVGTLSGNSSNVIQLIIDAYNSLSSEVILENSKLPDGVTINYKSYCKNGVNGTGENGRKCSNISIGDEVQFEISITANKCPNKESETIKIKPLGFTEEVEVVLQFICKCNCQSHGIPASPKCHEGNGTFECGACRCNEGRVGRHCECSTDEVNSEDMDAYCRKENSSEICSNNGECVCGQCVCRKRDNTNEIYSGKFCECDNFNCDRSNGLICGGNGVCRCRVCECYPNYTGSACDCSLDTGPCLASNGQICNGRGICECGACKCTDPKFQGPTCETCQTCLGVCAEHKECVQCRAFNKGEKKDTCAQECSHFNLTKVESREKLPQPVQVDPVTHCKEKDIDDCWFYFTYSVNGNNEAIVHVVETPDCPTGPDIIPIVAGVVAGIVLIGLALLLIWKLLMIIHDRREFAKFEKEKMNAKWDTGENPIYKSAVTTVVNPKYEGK
UniProt Q8VI36: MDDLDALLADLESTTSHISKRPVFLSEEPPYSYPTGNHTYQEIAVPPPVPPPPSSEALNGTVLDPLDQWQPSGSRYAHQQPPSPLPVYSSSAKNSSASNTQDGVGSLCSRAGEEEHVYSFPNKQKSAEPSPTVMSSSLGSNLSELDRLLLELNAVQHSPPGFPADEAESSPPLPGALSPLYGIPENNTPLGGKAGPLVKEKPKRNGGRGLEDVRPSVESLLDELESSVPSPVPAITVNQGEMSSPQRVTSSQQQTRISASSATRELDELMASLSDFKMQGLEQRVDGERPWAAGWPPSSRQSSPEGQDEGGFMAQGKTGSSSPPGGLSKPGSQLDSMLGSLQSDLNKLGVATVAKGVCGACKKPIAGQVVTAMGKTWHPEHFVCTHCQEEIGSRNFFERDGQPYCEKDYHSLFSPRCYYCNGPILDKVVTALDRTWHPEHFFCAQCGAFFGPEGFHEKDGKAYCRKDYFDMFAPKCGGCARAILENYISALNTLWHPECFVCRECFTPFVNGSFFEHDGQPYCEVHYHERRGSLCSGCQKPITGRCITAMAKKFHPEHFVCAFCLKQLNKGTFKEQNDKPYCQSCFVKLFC

These molecules were tested against MYC-BioID2-RHOU (mouse) (UniProt Q9EQT3) (assay: proximity labelling; BioID2: MYC-BioID2 bait induced with 1 μg/ml doxycycline in Krt14-rtTA mouse keratinocytes in growth conditions (low calcium), 50 μM biotin for 16 hr; lysis in 50 mM Tris pH 7.4, 500 mM NaCl, 0.2% SDS, 1 mM DTT; streptavidin beads; mass spectrometry; a hit is found in 2 of 3 RHOU replicates and in none of the GFP samples).

binding	Molecule
binds	EGFR (from UniProt Q01279 25-1210) (receptor)
binds	PAK2 (from UniProt Q8CIN4 1-524) (enzyme)
binds	integrin β1 (from UniProt P09055 21-798) (receptor)
binds	paxillin (from UniProt Q8VI36 1-591)
binds	p120-catenin (Ctnnd1) (protein, UniProt P30999 1-938) MDDSEVESTASILASVKEQEAQFEKLTRALEEERRHVSAQLERVRVSPQDANSLMANGTLTRRHQNGRFVGDADLERQKFSDLKLNGPQDHNHLLYSTIPRMQEPGQIVETYTEEDPEGAMSVVSVETTDDGTTRRTETTVKKVVKTMTTRTVQPVPMGPDGLPVDASAVSNNYIQTLGRDFRKNGNGGPGPYVGQAGTATLPRNFHYPPDGYGRHYEDGYPGGSDNYGSLSRVTRIEERYRPSMEGYRAPSRQDVYGPQPQVRVGGSSVDLHRFHPEPYGLEDDQRSMGYDDLDYGMMSDYGTARRTGTPSDPRRRLRSYEDMIGEEVPPDQYYWAPLAQHERGSLASLDSLRKGMPPPSNWRQPELPEVIAMLGFRLDAVKSNAAAYLQHLCYRNDKVKTDVRKLKGIPILVGLLDHPKKEVHLGACGALKNISFGRDQDNKIAIKNCDGVPALVRLLRKARDMDLTEVITGTLWNLSSHDSIKMEIVDHALHALTDEVIIPHSGWEREPNEDCKPRHIEWESVLTNTAGCLRNVSSERSEARRKLRECDGLVDALIFIVQAEIGQKDSDSKLVENCVCLLRNLSYQVHREIPQAERYQEALPTVANSTGPHAASCFGAKKGKDEWFSRGKKPTEDPANDTVDFPKRTSPARGYELLFQPEVVRIYISLLKESKTPAILEASAGAIQNLCAGRWTYGRYIRSALRQEKALSAIAELLTSEHERVVKAASGALRNLAVDARNKELIGKHAIPNLVKNLPGGQQNSSWNFSEDTVVSILNTINEVIAENLEAAKKLRETQGIEKLVLINKSGNRSEKEVRAAALVLQTIWGYKELRKPLEKEGWKKSDFQVNLNNASRSQSSHSYDDSTLPLIDRNQKSDKKPDREEIPMSNMGSNTKSLDNNYSTLNERGDHNRTLDRSGDLGDMEPLKGAPLMQKI
binds	tensin-4 (protein, UniProt Q8BZ33 15-696) TPCEESRMALHPTPSPGLPALCPYYTTESWGTQPLMAPTLRKGSSDRLQQAQQAEARAHCLLQGPGEQASGASQDLESCIDFSLEALNQMILEIDPTFQLLPSGTAGPQAESTNSIMSRNKKEEPEALDIKYIEVTSTRSRYLDGPQRCSSPCATPPFGSPRSGSLFLSRDIPRETRSSSNESLIFSGNQGRGPSPLTPSSLSNAIPCRESRTSGSPLATPPGWEKGLRAPQRGSRVSILSASPVSDVSYVFGSNQSLPHSSLSSYPSSSRSLGSPASSSSSLHSLDRGSQCGRPSDAQAPSNPILGMGQPQAVQSTPVAKEQASSCPASVTNSMADIPIVLINGSPEPQSPPAQRTPGHQDSVQSRVTSPSHLCQAIKSPSKTLPDVPLPASPDGPAKDMQPTMKFVMDTSKYWFKPSITREQAINLLRTEKPGAFVIRDSSSYRGSFGLALKVQETSASAPNRPGEDSSDLIRHFLIESSAKGVHLKGADEEPYFGSLSSFVCQHSIMALALPCKLTIPQKELGGAEPASDSPTHGQTSCLKISAGCHTLYLSSVSVETLSGALAVQKAISVTLERDVLPTPTVVHFKVTEQGITLTDVQRKVFFRRHYPLSALRFCGMDPEQRKWQKYCKPSRIFGFVAKSQTEPQENVCHLFAEYDAVQPASQVISLVTALLQDTERM
binds	ARHGEF7 (β-PIX) (protein, UniProt Q9ES28 1-862) MNSAEQTVTWLITLGVLESPKKTISDPEVFLQASLKDGVVLCRLLERLLPGTIEKVYPEPRNESECLSNIREFLRACGASLRLETFDANDLYQGQNFNKVLSSLVTLNKVTADIGLGSDSVCARPSSHRIKSFDSLGSQSSHSRTSKLLQSQYRSLDMTDNTNSQLVVRAKFNFQQTNEDELSFSKGDVIHVTRVEEGGWWEGTHNGRTGWFPSNYVREIKPSEKPVSPKSGTLKSPPKGFDTTAINKSYYNVVLQNILETEHEYSKELQSVLSTYLRPLQTSDKLSSANTSYLMGNLEEISSFQQVLVQSLEECTKSPEAQQRVGGCFLSLMPQMRTLYLAYCANHPSAVSVLTEHSEDLGEFMETKGASSPGILVLTTGLSKPFMRLDKYPTLLKELERHMEDYHPDRQDIQKSMTAFKNLSAQCQEVRKRKELELQILTEPIRSWEGDDIKTLGSVTYMSQVTIQCAGSEEKNERYLLLFPNLLLMLSASPRMSGFIYQGKLPTTGMTITKLEDSENHRNAFEISGSMIERILVSCTSQQDLHEWVEHLQKQTKVTSVSNPTIKPHSVPSHTLPSHPLTPSSKHADSKPVALTPAYHTLPHPSHHGTPHTTISWGPLEPPKTPKPWSLSCLRPAPPLRPSAALCYKEDLSKSPKTMKKLLPKRKPERKPSDEEFAVRKSTAALEEDAQILKVIEAYCTSAKTRQTLNSTWQGTDLMHNHVLADDDQSSLDSLGRRSSLSRLEPSDLSEDSEYDSIWTAHSYRMGSASRSRKESAPQVLLPEEEKIIVEETKSNGQTVIEEKSLVDTVYALKDEVQELRQDNKKMKKSLEEEQRARKDLEKLVRKVLKNMNDPAWDETNL
